Test results reported in article PMC9253731.
These are yes or no findings as the source states them, for the method shown. Binding seen in cells or lysates may run through a third protein. These calls come from enrichment with a bait or labelling near it, and not all partners need be listed.

Chains of the proteins cited; added tags and fusions are not shown.
UniProt O00571: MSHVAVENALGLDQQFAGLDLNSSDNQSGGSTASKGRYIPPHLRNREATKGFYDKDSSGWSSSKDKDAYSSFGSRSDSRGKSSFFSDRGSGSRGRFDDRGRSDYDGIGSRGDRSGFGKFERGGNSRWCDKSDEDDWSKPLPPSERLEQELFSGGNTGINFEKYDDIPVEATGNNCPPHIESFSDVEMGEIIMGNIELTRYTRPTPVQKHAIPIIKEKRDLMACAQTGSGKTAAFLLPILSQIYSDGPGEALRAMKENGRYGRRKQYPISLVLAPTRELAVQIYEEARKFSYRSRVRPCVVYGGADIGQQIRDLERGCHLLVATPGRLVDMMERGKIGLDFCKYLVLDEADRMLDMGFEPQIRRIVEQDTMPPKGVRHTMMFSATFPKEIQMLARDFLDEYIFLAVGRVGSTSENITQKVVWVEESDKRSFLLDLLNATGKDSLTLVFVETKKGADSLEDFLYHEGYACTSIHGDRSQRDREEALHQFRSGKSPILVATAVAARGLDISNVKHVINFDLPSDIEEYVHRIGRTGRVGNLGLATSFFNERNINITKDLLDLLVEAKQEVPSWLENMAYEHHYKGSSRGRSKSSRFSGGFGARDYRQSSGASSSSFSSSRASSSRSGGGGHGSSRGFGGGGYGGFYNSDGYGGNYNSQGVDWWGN
UniProt Q13177: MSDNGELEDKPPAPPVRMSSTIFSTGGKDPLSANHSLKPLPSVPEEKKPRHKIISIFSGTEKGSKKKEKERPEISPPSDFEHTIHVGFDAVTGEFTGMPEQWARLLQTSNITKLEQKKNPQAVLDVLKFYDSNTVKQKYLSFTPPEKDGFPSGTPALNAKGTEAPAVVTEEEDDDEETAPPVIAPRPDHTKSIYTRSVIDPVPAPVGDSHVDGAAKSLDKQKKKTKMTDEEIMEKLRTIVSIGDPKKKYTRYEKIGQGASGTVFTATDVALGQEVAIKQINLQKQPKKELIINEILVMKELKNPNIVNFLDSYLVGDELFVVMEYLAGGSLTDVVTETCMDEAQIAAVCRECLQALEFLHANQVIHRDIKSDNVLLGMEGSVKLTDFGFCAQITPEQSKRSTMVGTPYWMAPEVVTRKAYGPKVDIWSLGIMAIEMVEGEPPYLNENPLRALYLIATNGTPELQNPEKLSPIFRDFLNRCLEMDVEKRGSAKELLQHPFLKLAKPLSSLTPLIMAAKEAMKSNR

Biological target: Yin Yang 1 (human (endogenous in MDA-MB-231 and BT549)) (UniProt P25490)
Assay: affinity purification with mass spectrometry; immunoprecipitation of endogenous YY1 with 20 ug anti-YY1 antibody (Pierce Classic Magnetic IP/Co-IP kit) from MDA-MB-231 and BT549 lysates, control IgG; SDS-PAGE, silver staining, bands excised, HPLC-MS; H/L ratio > 2.0

Substance: DEAD-box helicase 3 X-linked (from UniProt O00571 1-662)
- binding: binds

Substance: PAK2 (from UniProt Q13177 1-524)
- binding: binds

Substance: PTPN11 (from UniProt Q06124 1-593)
- binding: binds
